# PubChem BioAssay AID504784 | Drosophila RNAi Screening Center | 2011
# Aim: 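Search for regulators of lipid droplet storage in oleate-fed fly cells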 (primary screen)
# Cell system: Drosophila Kc167 embryonic cells
# Reagent: long dsRNA against Drosophila genes, about 250 ng dsRNA per well
# Duration: 4 days
# Challenge: cells fed 400 µM oleic acid bound to BSA
# Measurement: 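Microscope images give a droplet-to-nucleus area ratio, taken as log and converted to a screen-wide B-score; higher values mean greater lipid storage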
# Scale: droplet/nuclear area B-score: higher = more stored lipid (overstorage)
# The deposit covers about 17,000 reagents; below is an unselected part of those with a known target gene and a result. 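Each column is one replicate's B-score; the combined score over replicates was not deposited, so single values may mislead.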 A plus sign joins genes that one reagent is predicted to hit.
Gene,DRSC id,"droplet/nuclear area B-score, replicate 1","droplet/nuclear area B-score, replicate 2","droplet/nuclear area B-score, replicate 3"
dind,DRSC16294,-0.256,0.873,
CG16786,DRSC04281,1.04,0.617,
orion,DRSC18213,0.217,-2.03,
orion,DRSC18214,-0.232,0.408,
CG33267,DRSC09120,0.313,1.79,
CTCF,DRSC11004,-0.665,-0.638,
DIP-beta,DRSC20489,1.6,0.431,
DIP-beta,DRSC20490,0.452,-0.941,
DIP-beta,DRSC20505,-0.025,-0.169,
Src42A,DRSC04915,0.0834,-0.515,
CG32551,DRSC19259,-0.245,-1.56,
CG5946,DRSC10560,-1.64,-0.652,
Ack-like,DRSC07500,0.659,-0.914,
CG4702,DRSC15626,0.00355,1.55,
CG11668,DRSC14341,0.0485,-0.0899,
CG15021,DRSC08475,-1.28,0.658,-1.35
CG33288,DRSC11484,-0.132,-0.723,
CG1792,DRSC15290,-0.851,0.814,
PGRP-LD + Pmi,DRSC10512,-1.93,-0.216,
PGRP-LD + Pmi,DRSC10513,-0.573,2.86,0.615
TwdlY,DRSC19153,-0.72,0.254,0.88
CG32305,DRSC08614,-0.422,-1.44,
CG11227,DRSC20476,0.406,0.428,
Muc96D,DRSC13709,3.21,-0.91,
Muc96D,DRSC21609,-0.662,0.116,
Muc96D,DRSC23213,0.162,-1.11,
Kaz,DRSC14637,0.324,0.0111,
sp3,DRSC16354,-0.842,-0.171,
CG11771,DRSC14379,-0.0592,-0.502,
CG8578,DRSC20114,-0.581,-0.21,-0.0146
nclb,DRSC07009,1.96,1.6,
RFeSP,DRSC00702,-1.22,2.12,
CG13299,DRSC09973,0.478,-1.14,
ND-B15,DRSC06199,1.97,0.973,
Asap,DRSC06493,0.581,-1.04,
Asap,DRSC06830,-0.738,-0.744,
cdm,DRSC16213,0.0536,2.91,
vanin-like,DRSC17440,-0.355,-0.0457,
cn,DRSC07594,2.59,1.26,
spartin,DRSC12187,-0.409,0.151,
CG32440,DRSC11480,-3.73,-2.53,
Polr1C,DRSC02719,-0.26,-1.5,
jagn,DRSC12152,2.93,1.72,
Rint1,DRSC11010,-0.396,-0.0286,
Sgf29,DRSC04076,0.972,-0.473,

A portion of the results above, for reference:
Gene,DRSC id,"droplet/nuclear area B-score, replicate 1","droplet/nuclear area B-score, replicate 2","droplet/nuclear area B-score, replicate 3"
Asap,DRSC06830,-0.738,-0.744,
cdm,DRSC16213,0.0536,2.91,
vanin-like,DRSC17440,-0.355,-0.0457,
cn,DRSC07594,2.59,1.26,

The list goes on:
Gene,DRSC id,"droplet/nuclear area B-score, replicate 1","droplet/nuclear area B-score, replicate 2","droplet/nuclear area B-score, replicate 3"
CG2321,DRSC15439,-0.0377,4.55,
CG1409,DRSC17910,0.497,,
CG14829,DRSC10199,0.51,3.74,
Ir52c,DRSC21801,-0.413,0.239,
Pop1,DRSC17739,0.971,-0.0077,-0.0121
ssp2,DRSC11052,0.575,-0.434,-0.327
CG15614,DRSC06567,2.78,0.303,
Wee1,DRSC03635,-0.336,-0.137,
Wee1,DRSC23318,1.07,2.67,
RAF2,DRSC10443,0.232,-1.06,0.347
RAF2,DRSC10454,-1.33,-0.113,
CG7806,DRSC03071,-0.58,-2.86,
BEAF-32 + CG42254 (retired record),DRSC05503,0.943,0.207,
Ubr3,DRSC17987,0.00443,0.451,-0.00638
Ubr3,DRSC17997,-1.75,-1.36,
Rac2,DRSC11262,0.967,-1.04,
tyf,DRSC18382,-0.71,-1.36,
CG42586 + CG31775,DRSC01413,0.0963,1.65,
Cad74A,DRSC10636,1.04,-0.712,
CG13603,DRSC14606,-2.95,2.68,
CG8520,DRSC07206,1.07,0.339,
RpS27A,DRSC03421,2.77,2.29,
Aldh7A1,DRSC11083,-0.498,0.379,-0.705
CG14323,DRSC14802,2.3,-1.21,
Prx2,DRSC20256,0.0467,0.742,-0.765
CG9067,DRSC07328,-0.912,-0.754,
CG9815,DRSC04567,0.203,1.28,
CG15756,DRSC19721,-1.7,-0.042,0.0103
CG14273,DRSC02377,-1.09,-1.51,
CG7084,DRSC16194,0.776,2.86,
indra,DRSC08558,0.268,,
Clamp,DRSC03718,0.0881,1.12,
Clamp,DRSC21682,-1.48,3.79,
Sodh1,DRSC12605,-0.0413,5.47,
lmgA + lmgB,DRSC03566,-0.261,1.1,
CG13842,DRSC14692,0.401,-0.337,
CG17169,DRSC20905,1.67,0.307,
CHES-1-like,DRSC18447,3.06,3.37,
